## Screening data, single-dose tests

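Growth of Mycobacterium tuberculosis over 4 days (cholesterol / DPPC medium with tyloxapol); the read-out is not stated. Concentration: 50 µM. The record gives no direction; compounds that gave an IC50 in retests scored well above the rest, so higher reads as more growth inhibition. Of about 69,000 compounds tested this way, about 370 (0.54%) reached 50% or more in at least one test.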

The filed quantity is “Percent Effect” (%).
How 0% and 100% were set is not recorded. Most values in the screen are low, and negative values occur.
This is an unselected part of the compounds tested.
Two or more numbers in one place are separate tests of the same structure; such repeats can differ widely.

{"smiles": "O=C(C1CCN(c2ccnc3ccc(Br)cc23)CC1)N1CCOCC1", "percent effect": -39.5}
{"smiles": "COC(=O)N1CCC(c2nnc(Cn3ccnc3)n2C)CC1", "percent effect": -9.629}
{"smiles": "O=C(CN1CCCC1Cn1cncn1)NCCOc1cccc(F)c1", "stereo": "stereo unspecified", "percent effect": 5.222}
{"smiles": "O=C(NC1CCc2nccn2C1)c1ccc(NC2CC2)nc1", "stereo": "stereo unspecified", "percent effect": -12.98}
{"smiles": "CN1CCN(C(=O)c2cc(-c3cnc(N4CCCC4)nc3)cn2C)CC1", "percent effect": -15.77}
{"smiles": "Cn1ncc(C(=O)N2CCCC(n3cccn3)C2)c1C1CC1", "stereo": "stereo unspecified", "percent effect": 0.4956}
{"smiles": "CCOC1CCCN(C(=O)CCOc2ccc(C)cc2OC)C1", "stereo": "stereo unspecified", "percent effect": -24.85}
{"smiles": "c1cc(C2CCCN2CC2CCCCC2)n[nH]1", "stereo": "stereo unspecified", "percent effect": 7.231}
{"smiles": "CC(C)n1cc(-c2nc3cc(S(=O)(=O)N4CCCC4)ccc3n2C)cn1", "percent effect": 17.76}
{"smiles": "c1ccc(CCc2n[nH]c(C3CCC3)n2)cc1", "percent effect": 77.09}
{"smiles": "CC(C)Cc1nc(CS(=O)(=O)c2ccccc2)no1", "percent effect": 25.39}
{"smiles": "CSCCN1CCC(NC(=O)OC(C)(C)C)CC1", "percent effect": 25.3}
{"smiles": "Cn1nc2c(cc1=O)CN(c1nc3ccccc3s1)CC2", "percent effect": -27.94}
{"smiles": "O=C(c1ccccn1)N1CCN(c2ccc(-c3cccnc3)nn2)CC1", "percent effect": -13.58}
{"smiles": "COCCN(C)C[C@@H]1CN(C(=O)c2c(C)cccc2OC)C[C@@H]1CO", "percent effect": "5.404 & -4.821"}
{"smiles": "CCc1ccc(C2CCCCCN2C(=O)CNC(=O)NC2CC2)o1", "stereo": "stereo unspecified", "percent effect": -14.96}
{"smiles": "Cc1noc(CN(C)CC2CCCN(CCc3ccc(Cl)cc3)C2)n1", "stereo": "stereo unspecified", "percent effect": -9.245}
{"smiles": "CC(=O)NC1CCCN(Cc2ccn(C)c(=O)c2)C1", "stereo": "stereo unspecified", "percent effect": -3.078}
{"smiles": "Cc1noc(C2CCCN(C(=O)c3cc(-c4ccccc4)on3)C2)n1", "stereo": "stereo unspecified", "percent effect": -9.289}
{"smiles": "Cc1cccc(N2CCN(C(=O)NC(C)c3nncn3C)CC2)c1C", "stereo": "stereo unspecified", "percent effect": 6.587}
{"smiles": "Cc1nn(C)cc1Cn1c(=O)ccc2ccccc21", "percent effect": -12.32}
{"smiles": "CC(C)N1CCC(Cc2cncc(-c3ccccc3C(=O)O)n2)CC1", "percent effect": -1.587}
{"smiles": "O=C(c1ccc2cccc(F)c2n1)N1CCN(CCn2cncn2)CC1", "percent effect": 14.12}
{"smiles": "Fc1cccc(N2CCOC3(CCCN(c4nncs4)C3)C2)c1", "stereo": "stereo unspecified", "percent effect": "-20.02 & -7.937"}
{"smiles": "Cc1nnc(C2Cc3ccccc3CN2Cc2nc(C3CC3)no2)o1", "stereo": "stereo unspecified", "percent effect": 14.64}
{"smiles": "O=C(c1cc2c(F)cccc2[nH]1)N1CCCCC1Cn1cccn1", "stereo": "stereo unspecified", "percent effect": -4.365}
{"smiles": "O=C(O)C(F)(F)F.[H][C@]12CCN(c3cncnc3)C(=O)[C@]1([H])CN(Cc1ccccn1)C2", "percent effect": -9.163}
{"smiles": "Cn1cc(C(=O)Nc2ccc(CC(=O)NCC(F)(F)F)cc2)nn1", "percent effect": 17.71}
{"smiles": "CN(Cc1csc(-c2ccccc2)n1)Cc1ncccc1C(=O)O", "percent effect": -20.56}
{"smiles": "Cc1ccc(CN2CCOC3(CCN(CC4CCOC4)CC3)C2)cc1.O=C(O)C(F)(F)F.O=C(O)C(F)(F)F", "stereo": "stereo unspecified", "percent effect": -5.608}
{"smiles": "CC(C)(C(N)=O)N1CCN(C(=O)c2ccn(-c3cccc(Cl)c3)n2)CC1", "percent effect": 0.3578}
{"smiles": "CCC(C)NC(=O)c1ccc(CNC(=O)CCC(C)C)cc1", "stereo": "stereo unspecified", "percent effect": "1.034 & -24.11"}
{"smiles": "COc1cc(C2SCC(=O)Nc3[nH]ncc32)c(OC)c2c1OCO2", "stereo": "stereo unspecified", "percent effect": -1.006}

Some entries from above, unchanged:

{"smiles": "c1cc(C2CCCN2CC2CCCCC2)n[nH]1", "stereo": "stereo unspecified", "percent effect": 7.231}
{"smiles": "CC(=O)NC1CCCN(Cc2ccn(C)c(=O)c2)C1", "stereo": "stereo unspecified", "percent effect": -3.078}
{"smiles": "CC(C)Cc1nc(CS(=O)(=O)c2ccccc2)no1", "percent effect": 25.39}
{"smiles": "O=C(c1cc2c(F)cccc2[nH]1)N1CCCCC1Cn1cccn1", "stereo": "stereo unspecified", "percent effect": -4.365}

The values are deposited in ChEMBL (CHEMBL3988442, “University of Dundee, Small-Polar-MMV Screening Library” (2021)).